Test [1] addresses T1, His6-Sgt2 (wildtype Sgt2) (UniProt Q12118).
T1 sequence: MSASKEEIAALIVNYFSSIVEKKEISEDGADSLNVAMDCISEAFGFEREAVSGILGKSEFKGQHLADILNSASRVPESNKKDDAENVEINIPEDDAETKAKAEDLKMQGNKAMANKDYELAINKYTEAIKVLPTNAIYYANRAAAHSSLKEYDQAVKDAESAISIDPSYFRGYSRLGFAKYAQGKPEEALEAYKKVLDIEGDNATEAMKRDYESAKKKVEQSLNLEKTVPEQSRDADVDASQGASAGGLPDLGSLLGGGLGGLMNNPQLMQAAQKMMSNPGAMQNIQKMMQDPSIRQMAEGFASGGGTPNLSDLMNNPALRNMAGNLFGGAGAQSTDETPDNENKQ
Description: condition: only high salt wash (GET buffer with 500 mM NaCl); pull-down; as a4, but resin washed with 100 column volumes of GET buffer with 500 mM NaCl (high salt wash); both purified.

Sequences of proteins named here, by UniProt entry; tags and fusion partners are left off.
UniProt P10591: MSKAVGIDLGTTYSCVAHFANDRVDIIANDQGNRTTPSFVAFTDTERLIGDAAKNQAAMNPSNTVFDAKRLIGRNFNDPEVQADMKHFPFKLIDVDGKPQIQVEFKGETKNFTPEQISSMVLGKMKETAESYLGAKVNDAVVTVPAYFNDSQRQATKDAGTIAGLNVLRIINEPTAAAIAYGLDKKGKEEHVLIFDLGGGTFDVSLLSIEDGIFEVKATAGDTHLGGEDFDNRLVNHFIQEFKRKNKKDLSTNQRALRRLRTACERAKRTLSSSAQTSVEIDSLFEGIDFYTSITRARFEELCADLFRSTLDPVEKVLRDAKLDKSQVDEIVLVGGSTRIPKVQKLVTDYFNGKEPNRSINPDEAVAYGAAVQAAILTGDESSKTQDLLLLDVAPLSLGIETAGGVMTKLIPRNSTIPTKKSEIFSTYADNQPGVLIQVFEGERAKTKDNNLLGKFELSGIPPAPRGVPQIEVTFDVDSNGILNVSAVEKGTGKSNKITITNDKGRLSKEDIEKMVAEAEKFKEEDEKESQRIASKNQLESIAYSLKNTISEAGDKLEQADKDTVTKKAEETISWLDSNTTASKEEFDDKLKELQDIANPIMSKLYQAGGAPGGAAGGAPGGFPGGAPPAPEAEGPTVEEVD
UniProt P25491: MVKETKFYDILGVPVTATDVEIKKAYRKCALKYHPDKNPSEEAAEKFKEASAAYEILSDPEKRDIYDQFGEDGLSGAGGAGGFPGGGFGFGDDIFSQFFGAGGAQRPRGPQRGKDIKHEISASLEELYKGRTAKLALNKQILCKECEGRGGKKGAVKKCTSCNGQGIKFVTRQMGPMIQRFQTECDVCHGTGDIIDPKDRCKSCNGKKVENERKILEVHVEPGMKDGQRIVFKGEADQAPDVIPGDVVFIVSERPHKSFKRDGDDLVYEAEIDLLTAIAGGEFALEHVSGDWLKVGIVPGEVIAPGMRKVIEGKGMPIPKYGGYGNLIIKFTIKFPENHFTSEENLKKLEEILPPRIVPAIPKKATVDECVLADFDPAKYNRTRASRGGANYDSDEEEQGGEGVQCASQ

Test [2] has as its target T2, His6-tagged wildtype Sgt2 (S. cerevisiae (printed as ScSgt2)) (UniProt Q12118).
T2 sequence: T1 sequence
Description: pull-down; 0.6 µM His6-Sgt2 added for 1 min to a preformed Ssa1-TA complex (0.3 µM TA, 3 µM Ssa1, 2 mM ATP, with or without 3 µM Ydj1) in GET buffer; captured on Talon resin at 4 °C, washed with GET buffer + 5 mM imidazole, eluted with 300 mM imidazole; silver stain and anti-Strep western blot; both purified. (In general: A western blot detects proteins with antibodies after separation by electrophoresis.)

For test [3], the target named is T1, His6-Sgt2 (wildtype Sgt2). The experiment in a line: pull-down; TA (0.3 µM) loaded on 3 µM Ssa1 with 2 mM ATP, with or without 3 µM Ydj1, then 0.6 µM His6-Sgt2; Talon resin, GET buffer (150 mM KOAc) with 5 mM imidazole wash; both purified.
The target in test [4] is His-Sgt2 Q242C (S. cerevisiae (printed as ScSgt2)) (UniProt Q12118). Description: cross-linking; thiol crosslinker BMH: 0.3 µM His-Sgt2 (0.5 µM in Supplementary Figure 7a) with 0.5 or 1 mM BMH at room temperature for 1 h; anti-His western blot, or Coomassie staining and fluoroscan at 635 nm; intradimer crosslink; both purified.
The target of test [5] is His-Sgt2 S335C (S. cerevisiae (printed as ScSgt2)) (UniProt Q12118). The description is as above.
In test [6] the target is His-Sgt2 Q346C (S. cerevisiae (printed as ScSgt2)) (UniProt Q12118). The test is described as above.
The target in test [7] is His6-Sgt2-G258C (S. cerevisiae (printed as ScSgt2)) (UniProt Q12118). Description: cross-linking; purified Sgt2-C258-TA complex (TA translated in S30 lysate with His6-Sgt2-G258C, purified via the His6-tag, 1 mM TCEP) incubated with 1 mM BMH at RT; anti-His western blot; both purified.
The target is the same in test [8]. Description: cross-linking; thiol crosslinker BMH: 0.3 µM His-Sgt2 (0.5 µM in Supplementary Figure 7a) with 0.5 or 1 mM BMH at room temperature for 1 h; anti-His western blot, or Coomassie staining and fluoroscan at 635 nm; intradimer crosslink; both purified.
Test [9] has as its target His-Sgt2 G306C (S. cerevisiae (printed as ScSgt2)) (UniProt Q12118). Described as above.

Substitutions are numbered along the chain they refer to. Names and notes keep the numbering of the source. Results are given in words; binding and its absence hold for the method and conditions named. Some entries that bind do so weakly or less than the wild type. Sequences can lack the tags named with a protein.

Consider “Ssa1 (tagless) (from UniProt P10591 1-642)”, for which the binding result in test [1] is given as “no binding”.
As to Ydj1 (from UniProt P25491 1-409), in [2], the binding entry is listed as “no binding (tested: 3 µM Ydj1)”.
Regarding “Ydj1 (tagless) (from UniProt P25491 1-409)”, the binding result in [3] is “no binding (tested: 3 µM Ydj1)”.

B1: His-Sgt2 Q242C (protein, UniProt Q12118 1-346)
chain: T1 sequence with Q242C
Take B1: the binding result in test [4] is given as “binds”.

B2: His-Sgt2 S335C (protein, UniProt Q12118 1-346)
chain: T1 sequence with S335C
B2: the binding entry in [5] is “binds”.

B3: His-Sgt2 Q346C (protein, UniProt Q12118 1-346)
chain: T1 sequence with Q346C
Regarding B3, the binding entry in test [6] is “binds”.

B4: His6-Sgt2-G258C (protein, UniProt Q12118 1-346)
chain: T1 sequence with G258C
Regarding B4, the binding entry in test [7] and in test [8] was “binds” each time.

B5: His-Sgt2 G306C (protein, UniProt Q12118 1-346)
chain: T1 sequence with G306C
Turning to B5, in test [9], the binding entry was “binds”.

These data come from publication PMC10761869 (Nature Communications, 2024).
